For some of these results: Expression values are those of the mRNA of the gene that encodes the peptide; a gene is named only where it was looked up.
Legend:
Set-up in all cases: species or system human
[1] = system: source genes of selected peptides; test: Target coverage of source genes in tumor entities based on TCGA Research Network data; settings: over-expressed = more than 2-fold above the highest 75% percentile of normal organs; for Target coverage, over-expression category of source gene, BLCA (N = 408): Bladder urothelial carcinoma; for Target coverage, over-expression category of source gene, CESC (N = 307): Cervical squamous cell carcinoma and endocervical adenocarcinoma; for Target coverage, over-expression category of source gene, CHOL (N = 36): Cholangiocarcinoma; for Target coverage, over-expression category of source gene, HNSC (N = 521): Head and neck squamous cell carcinoma; for Target coverage, over-expression category of source gene, DLBC (N = 48): Lymphoid neoplasm diffuse large B-cell lymphoma; for Target coverage, over-expression category of source gene, MESO (N = 87): Mesothelioma
[2] = system: HLA-A*24 molecules of primary tumors; test: Identification and relative LC-MS quantitation of HLA-A*24 tumor-associated peptides presented on tissue samples (XPRESIDENT presentation profiles); settings: Table 9A: selected HLA-A*24-binding tumor-associated peptides; cancer entities on which the peptide was found presented
[3] = system: source genes of selected peptides; test: Expression profiling of source genes by in-house RNAseq, tumor vs normal tissues (target coverage); settings: for Target coverage, over-expression of source gene, AML: AML (N = 7); for Target coverage, over-expression of source gene, AML / Target coverage, over-expression of source gene, BRCA / Target coverage, over-expression of source gene, CLL / Target coverage, over-expression of source gene, CRC / Target coverage, over-expression of source gene, GB / Target coverage, over-expression of source gene, HCC / Target coverage, over-expression of source gene, OC / Target coverage, over-expression of source gene, OSCAR / Target coverage, over-expression of source gene, PC / Target coverage, over-expression of source gene, RCC / Target coverage, over-expression of source gene, SCLC / Target coverage, over-expression of source gene, pNSCLC: share of tumors with more than 1.5-fold higher expression than highest relevant normal tissue, in-house RNASeq; for Target coverage, over-expression of source gene, BRCA: BRCA (N = 10); for Target coverage, over-expression of source gene, CLL: CLL (N = 10); for Target coverage, over-expression of source gene, CRC: CRC (N = 20); for Target coverage, over-expression of source gene, GB: GB (N = 24); for Target coverage, over-expression of source gene, HCC: HCC (N = 15); for Target coverage, over-expression of source gene, OC: OC (N = 12); for Target coverage, over-expression of source gene, OSCAR: OSCAR (N = 11); for Target coverage, over-expression of source gene, PC: PC (N = 26); for Target coverage, over-expression of source gene, RCC: RCC (N = 10); for Target coverage, over-expression of source gene, SCLC: SCLC (N = 10); for Target coverage for source genes of selected peptides, GBC_CCC (N = 10): gallbladder adenocarcinoma and cholangiocarcinoma; for Target coverage for source genes of selected peptides, GBC_CCC (N = 10) / Target coverage for source genes of selected peptides, GC (N = 11) / Target coverage for source genes of selected peptides, HNSCC (N = 10) / Target coverage for source genes of selected peptides, MEL (N = 10) / Target coverage for source genes of selected peptides, NHL (N = 10) / Target coverage for source genes of selected peptides, PCA (n = 10) / Target coverage for source genes of selected peptides, UBC (N = 10) / Target coverage for source genes of selected peptides, UTC (N = 10): share of tumors with more than 1.5-fold higher expression than the highest-expressing relevant normal tissue, in-house RNAseq; for Target coverage for source genes of selected peptides, GC (N = 11): gastric cancer; for Target coverage for source genes of selected peptides, HNSCC (N = 10): head and neck small cell carcinoma; for Target coverage for source genes of selected peptides, MEL (N = 10): melanoma; for Target coverage for source genes of selected peptides, NHL (N = 10): non-Hodgkin lymphoma; for Target coverage, over-expression of source gene, pNSCLC: pNSCLC (N = 11); for Target coverage for source genes of selected peptides, PCA (n = 10): prostate cancer and benign prostate hyperplasia; for Target coverage for source genes of selected peptides, UBC (N = 10): urinary bladder cancer; for Target coverage for source genes of selected peptides, UTC (N = 10): uterine cancer

Row | Substance | Target coverage, over-expression category of source gene, BLCA (N = 408) [1] | Target coverage, over-expression category of source gene, CESC (N = 307) [1] | ENTITIES [2] | Target coverage, over-expression of source gene, AML [3] | Target coverage, over-expression of source gene, BRCA [3] | Target coverage, over-expression of source gene, CLL [3] | Target coverage, over-expression of source gene, CRC [3] | Target coverage, over-expression of source gene, GB [3] | Target coverage, over-expression of source gene, HCC [3] | Target coverage, over-expression of source gene, OC [3] | Target coverage, over-expression of source gene, OSCAR [3] | Target coverage, over-expression of source gene, PC [3] | Target coverage, over-expression of source gene, RCC [3] | Target coverage, over-expression of source gene, SCLC [3] | Target coverage for source genes of selected peptides, GBC_CCC (N = 10) [3] | Target coverage for source genes of selected peptides, GC (N = 11) [3] | Target coverage for source genes of selected peptides, HNSCC (N = 10) [3] | Target coverage for source genes of selected peptides, MEL (N = 10) [3] | Target coverage for source genes of selected peptides, NHL (N = 10) [3] | Target coverage, over-expression of source gene, pNSCLC [3] | other results
1 | 352: peptide found in ITGA2 (gene looked up) (QYGGDLTNTF; listed as Homo sapiens) [compound 352] | C (>=5% of tumors above the cutoff, but <20%) | C (>=5% of tumors above the cutoff, but <20%) | NSCLC, GB | I (<19% over-expression = I) | I (<19% over-expression = I) | I (<19% over-expression = I) | I (<19% over-expression = I) | I (<19% over-expression = I) | I (<19% over-expression = I) | I (<19% over-expression = I) | I (<19% over-expression = I) | II (20-49% = II) | I (<19% over-expression = I) | I (<19% over-expression = I) | II (20-49% = II) | I (<19% over-expression = I) | I (<19% over-expression = I) | I (<19% over-expression = I) | I (<19% over-expression = I) | II (20-49% = II) | Target coverage, over-expression category of source gene, CHOL (N = 36) [1]: C (>=5% of tumors above the cutoff, but <20%); Target coverage, over-expression category of source gene, HNSC (N = 521) [1]: C (>=5% of tumors above the cutoff, but <20%); Target coverage for source genes of selected peptides, PCA (n = 10) [3]: I (<19% over-expression = I); Target coverage for source genes of selected peptides, UBC (N = 10) [3]: II (20-49% = II); Target coverage for source genes of selected peptides, UTC (N = 10) [3]: I (<19% over-expression = I)
2 | 354: peptide found in KIF18A (gene looked up) (VYNEQIRDLL; listed as Homo sapiens) [compound 354] | B (>=20% of tumors above the cutoff, but <50%) | A (>=50% of tumors above the cutoff) | NSCLC, GC, GB | I (<19% over-expression = I) | I (<19% over-expression = I) | I (<19% over-expression = I) | I (<19% over-expression = I) | I (<19% over-expression = I) | I (<19% over-expression = I) | I (<19% over-expression = I) | I (<19% over-expression = I) | I (<19% over-expression = I) | I (<19% over-expression = I) | II (20-49% = II) | I (<19% over-expression = I) | I (<19% over-expression = I) | I (<19% over-expression = I) | I (<19% over-expression = I) | I (<19% over-expression = I) | I (<19% over-expression = I) | Target coverage, over-expression category of source gene, ACC (N = 79) ([1]; Adrenocortical carcinoma): C (>=5% of tumors above the cutoff, but <20%); Target coverage, over-expression category of source gene, CHOL (N = 36) [1]: C (>=5% of tumors above the cutoff, but <20%); Target coverage, over-expression category of source gene, HNSC (N = 521) [1]: B (>=20% of tumors above the cutoff, but <50%); Target coverage, over-expression category of source gene, DLBC (N = 48) [1]: B (>=20% of tumors above the cutoff, but <50%); Target coverage, over-expression category of source gene, MESO (N = 87) [1]: B (>=20% of tumors above the cutoff, but <50%); Target coverage for source genes of selected peptides, PCA (n = 10) [3]: I (<19% over-expression = I); Target coverage for source genes of selected peptides, UBC (N = 10) [3]: I (<19% over-expression = I); Target coverage for source genes of selected peptides, UTC (N = 10) [3]: I (<19% over-expression = I)
3 | 360: peptide found in PSMA7 (gene looked up) (VFSPDGHLF; listed as Homo sapiens) [compound 360] | C (>=5% of tumors above the cutoff, but <20%) | C (>=5% of tumors above the cutoff, but <20%) | GB, PCA, HCC, NSCLC | I (<19% over-expression = I) | II (20-49% = II) | I (<19% over-expression = I) | I (<19% over-expression = I) | I (<19% over-expression = I) | I (<19% over-expression = I) | I (<19% over-expression = I) | I (<19% over-expression = I) | I (<19% over-expression = I) | I (<19% over-expression = I) | I (<19% over-expression = I) | I (<19% over-expression = I) | I (<19% over-expression = I) | I (<19% over-expression = I) | I (<19% over-expression = I) | II (20-49% = II) | I (<19% over-expression = I) | Target coverage, over-expression category of source gene, HNSC (N = 521) [1]: C (>=5% of tumors above the cutoff, but <20%); Target coverage, over-expression category of source gene, DLBC (N = 48) [1]: B (>=20% of tumors above the cutoff, but <50%); Target coverage for source genes of selected peptides, PCA (n = 10) [3]: I (<19% over-expression = I); Target coverage for source genes of selected peptides, UBC (N = 10) [3]: I (<19% over-expression = I); Target coverage for source genes of selected peptides, UTC (N = 10) [3]: I (<19% over-expression = I)
4 | 361: peptide found in PSMC1 (gene looked up) (TYADIGGLDNQI; listed as Homo sapiens) [compound 361] | C (>=5% of tumors above the cutoff, but <20%) | C (>=5% of tumors above the cutoff, but <20%) | PCA, NSCLC, GC, GB, RCC | II (20-49% = II) | I (<19% over-expression = I) | I (<19% over-expression = I) | I (<19% over-expression = I) | I (<19% over-expression = I) | I (<19% over-expression = I) | I (<19% over-expression = I) | I (<19% over-expression = I) | I (<19% over-expression = I) | I (<19% over-expression = I) | I (<19% over-expression = I) | I (<19% over-expression = I) | I (<19% over-expression = I) | I (<19% over-expression = I) | I (<19% over-expression = I) | I (<19% over-expression = I) | I (<19% over-expression = I) | Target coverage, over-expression category of source gene, DLBC (N = 48) [1]: C (>=5% of tumors above the cutoff, but <20%); Target coverage, over-expression category of source gene, MESO (N = 87) [1]: C (>=5% of tumors above the cutoff, but <20%); Target coverage for source genes of selected peptides, PCA (n = 10) [3]: I (<19% over-expression = I); Target coverage for source genes of selected peptides, UBC (N = 10) [3]: I (<19% over-expression = I); Target coverage for source genes of selected peptides, UTC (N = 10) [3]: I (<19% over-expression = I)

Reference: US10159726B2, “Peptides, combination of peptides and scaffolds for use in immunotherapeutic treatment of various cancers” (Immatics Biotechnologies GmbH, priority 2015, dated 2018)
